Assay results taken from PubChem BioAssay AID651640 (Broad Institute, 2012).
Out of some 350,000 compounds screened, about 6,000 (1.7%) were called active. The inconclusive results got no clear call from the source; some entries with a clear call stand among them for comparison. No stated cut-off is given here; in the data, active means CPE inhibition above about 20% (passing the limit was not always enough); inconclusive means no clear call, values can overlap the other calls; tested in BHK-21 cells. The source holds several records for some structures; these can differ, active in one and inactive in another.

Test: protection of cells from dengue 2 killing – plate reader, single concentration, primary screen (AID 651640);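 further: 0% = median of neutral control wells and 100% = median of positive control wells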
Settings: DENV2-infected cells, cytopathic effect rescue, at 9.99 µM, stronger effect = higher value
For `Cc1nn(CC#N)c(=O)n1-c1ccc(Cl)cc1`, the CPE inhibition was inactive: 7.04%. With `Cc1noc(C)c1NC(=O)Nc1ccc2c(c1)C(=O)N([C@H](C)CO)C[C@H](C)[C@@H](CN(C)S(=O)(=O)c1cccs1)OCCCC[C@@H](C)O2` the CPE inhibition was inconclusive: 42.5%. For `C=CCN(CC=C)CCOc1ccccc1`, the CPE inhibition was inconclusive: 21.4%. For `O=S(=O)(NN=Cc1ccc(O)cc1O)c1cc(Cl)c(Cl)cc1Cl`, the CPE inhibition was inactive: 16.2%. For `Cc1ccc(-c2ccc3c(c2)O[C@H](CN(C)C(=O)C2CCC2)[C@H](C)CN([C@H](C)CO)S3(=O)=O)cc1`, the CPE inhibition was inconclusive: 22.4%. For `O=C(C[C@H]1CC[C@H]2[C@@H](COC[C@H](O)CN2CCC(F)(F)F)O1)NCC1CC1`, the CPE inhibition was inconclusive: 82.1%. In the case of `C=CCOc1c(Br)cc(CNCCCN2CCOCC2)cc1OC`, the CPE inhibition is reported as inconclusive: 24.2%. For `O=C1NC[C@H](Cc2ccc(O)cc2)N(C[C@H]2CCCN2C[C@H](Cc2ccc(O)cc2)N2C[C@H](Cc3ccc(O)cc3)N(CCc3ccccc3)C(=O)C2=O)C1=O`, the CPE inhibition was inconclusive: 55.8%. For `C[C@H]1CN([C@@H](C)CO)S(=O)(=O)c2ccc(-c3cccc(F)c3)cc2O[C@@H]1CN(C)C(=O)c1cccc(F)c1`, the CPE inhibition was inconclusive: 21.6%. With `CCS(=O)(=O)N1CCCCN2[C@H](C1)[C@H](c1ccc(C#Cc3ccccn3)cc1)[C@@H]2CO` the CPE inhibition was active: 52.5%. In the case of `COCc1cn(CC[C@@H]2CC[C@H](NC(=O)Nc3ccc(OC)cc3)[C@@H](CO)O2)nn1`, the CPE inhibition is reported as inconclusive: 33.3%. For `O=C(C[C@@H]1CC[C@@H]2[C@H](COC[C@H](O)CN2S(=O)(=O)c2ccccc2)O1)N[C@@H]1CCN(Cc2ccccc2)C1`, the CPE inhibition was inactive: 3.36%. With `O=C(N/N=C/c1cccnc1)c1ccc(Cn2cc([N+](=O)[O-])cn2)o1` the CPE inhibition was inactive: 1.05%. For `Cc1noc(C)c1S(=O)(=O)Nc1ccc2c(c1)C(=O)N([C@@H](C)CO)C[C@H](C)[C@@H](CN(C)S(=O)(=O)c1cccs1)OCCCC[C@@H](C)O2`, the CPE inhibition was inconclusive: 23.3%. For `COc1cccc(-c2ccc3c(c2)[C@H]2[C@H](CCN2S(=O)(=O)c2ccccc2C)[C@H](CO)N3)c1`, the CPE inhibition was active: 38.6%. For `COC(=O)c1ccc(Nc2cc(C)nc3ccccc23)cc1`, the CPE inhibition was inconclusive: 25.1%. In the case of `C[C@H](CO)N1C[C@H](C)[C@@H](CN(C)C)Oc2cc(C#Cc3cccc(F)c3)ccc2S1(=O)=O`, the CPE inhibition is reported as inactive: -6.64%. With `CC1Cc2ccccc2N1C(=O)CN1C(=O)NC(C)(CCc2ccccc2)C1=O` (stereo not drawn) the CPE inhibition was inconclusive: 35.9%. In the case of `O=C(N[C@@H]1CC[C@@H](CCn2cc(C3CCCC3)nn2)O[C@H]1CO)c1cccnc1`, the CPE inhibition is reported as active: 29.3%. For `O=CN1N=C(c2ccccc2)CC1c1ccc(Cl)cc1` (stereo not drawn), the CPE inhibition was inconclusive: 24%. In the case of `COc1ccc(CNC(=O)Nc2nc(C(N)Cc3ccc(Cl)cc3)cs2)cc1` (stereo not drawn), the CPE inhibition is reported as inconclusive: 20%. In the case of `NC(=O)NCC#Cc1ccc2c(c1)[C@]1(C(=O)N2)[C@H](C(N)=O)[C@H]2C(=O)O[C@H](c3ccccc3)[C@H](c3ccccc3)N2[C@@H]1c1ccccc1OCCO`, the CPE inhibition is reported as inconclusive: 36.4%. In the case of `O=C(OCc1ccccc1)c1c(-c2ccccc2)oc2c1C(OCCO)CCC2` (stereo not drawn), the CPE inhibition is reported as inconclusive: 20.3%. In the case of `COc1ccccc1NC(=O)CSc1nc(=O)n(Cc2ccncc2)c2c1CCCC2`, the CPE inhibition is reported as inconclusive: 50.1%. With `COc1cccc(NC(=O)N[C@@H]2CC[C@H](CC(=O)Nc3ccc(-c4ccccc4)cc3)O[C@H]2CO)c1` the CPE inhibition was inconclusive: 34.2%. For `C[C@H]1CN([C@@H](C)CO)C(=O)c2cccc(NC(=O)c3cnccn3)c2O[C@@H]1CN(C)S(=O)(=O)c1cn(C)cn1`, the CPE inhibition was inconclusive: 23.1%. In the case of `C[C@H]1CN([C@@H](C)CO)C(=O)Cc2cc(NC(=O)C3CCCCC3)ccc2O[C@@H]1CN(C)S(=O)(=O)c1cn(C)cn1`, the CPE inhibition is reported as inactive: 5.33%. In the case of `COc1ccc2[nH]c3c(c2c1)CCN1C(=O)C(CC(=O)NCC24CC5CC(CC(C5)C2)C4)C[C@H](C(=O)N(C(C)C)C(C)C)[C@@]31C` (stereo partly drawn), the CPE inhibition is reported as inconclusive: 55.2%. In the case of `COc1ccc2cc(C(=O)N3CCN(c4ccccc4F)CC3)[nH]c2c1`, the CPE inhibition is reported as inconclusive: 24%. In the case of `COc1ccc(NC(=O)Nc2ccc3c(c2)C(=O)N([C@H](C)CO)C[C@H](C)[C@@H](CN(C)C(=O)NC2CCCCC2)O3)cc1`, the CPE inhibition is reported as active: 39.2%. For `COc1cccc(-c2cn(CC[C@H]3CC[C@H](NC(C)=O)[C@@H](CO)O3)nn2)c1`, the CPE inhibition was inactive: 2.76%. With `C[C@H](CO)N1C[C@H](C)[C@H](CN(C)C(=O)c2cccnc2)Oc2cc(C3=CCCC3)ccc2S1(=O)=O` the CPE inhibition was inconclusive: 21.5%. In the case of `Cc1cc(C)nc(SCc2ccc([N+](=O)[O-])cc2)n1`, the CPE inhibition is reported as inactive: -6.84%. With `Cc1ccc(S(=O)(=O)NC[C@@H]2CC[C@@H]3[C@@H](CN3Cc3ccccc3C(=O)O)O2)cc1` the CPE inhibition was inactive: 1.17%. In the case of `O=C(C1CCOCC1)N1CC(=O)N2[C@H](C1)[C@H](c1ccc(-c3ccccc3F)cc1)[C@@H]2CO`, the CPE inhibition is reported as active: 20.5%. In the case of `CCCc1cc(C(=O)Nc2cc(OC)c(Cl)cc2OC)no1`, the CPE inhibition is reported as inconclusive: 27.7%. For `O=C(NCCS(=O)(=O)N1CCN(c2ccccc2)CC1)C1CCCC1`, the CPE inhibition was inconclusive: 20.2%. For `COc1ccc(-c2cccc3[nH]c4c(c23)CCN2C(=O)[C@H]3[C@H](C)ON(C)[C@H]3C[C@@H]42)cc1`, the CPE inhibition was inconclusive: 45.2%. For `O=C1NC[C@@H](CCCCN2C[C@H](Cc3ccc(O)cc3)N(CC3CCCCC3)C(=O)C2=O)N(CCC2CCCCC2)C1=O`, the CPE inhibition was active: 58.8%. In the case of `Cc1ccc(C(=O)NC(=S)N(C)C2CCCCC2)cc1`, the CPE inhibition is reported as inconclusive: 22.5%. With `COCC#Cc1cnc2c(c1)C(=O)N([C@@H](C)CO)C[C@@H](C)[C@H](CN(C)C(=O)Cc1ccncc1)O2` the CPE inhibition was inconclusive: 44.1%. For `C[C@H]1CCCCO[C@H](CN(C)Cc2ccc(C(F)(F)F)cc2)[C@@H](C)CN([C@@H](C)CO)C(=O)c2cc(NC(=O)Nc3ccc(F)cc3)ccc2O1`, the CPE inhibition was inconclusive: 28.8%. With `CC(Sc1nn(-c2ccccc2)c(=S)s1)C(=O)NCC1CCCO1` (stereo not drawn) the CPE inhibition was inconclusive: 78.9%.
